Data: US12640054B2, “Computational in silico model for placental barrier” (CFD Research Corporation, priority 2022, dated 2026)
At least one compound was matched to its structure with a doubt left.

Test system: Bewo 30 cytotrophoblasts
Test: Syncytialization by ICC staining of E-cadherin
Format: cell-based, human
Conditions: after 96 hours in culture, treated versus control cultures; FIG. 6

C=C[C@@]1(C)CC(=O)[C@]2(O)[C@@]3(C)[C@@H](O)CCC(C)(C)[C@@H]3[C@H](O)[C@H](OC(C)=O)[C@@]2(C)O1 [forskolin]
expression of E-cadherin: decreased
